Residues, ends and D or L forms follow the SMILES beside them.
System: red blood cells (erythrocytes)
Assay: Hemolytic activity of the peptides (hemoglobin release, absorbance at 412 nm)
Type: cell-based
Settings: difference between mean of hemolysis and mean of activity; closest to zero is optimal
Method: Hemolysis as defined herein is an in vitro assay where the compounds tendency to lyse red blood cells is determined. Presumably, the compounds that are less hemolytic will be less toxic in vivo. Increasing amounts of compound are added to solutions containing red blood cells and left for a specified time and then lysis is determined spectrophotometrically by measuring hemoglobin release.
A small volume of a suspension of erythrocytes (about 100 million) is kept on ice with a specific amount of lytic peptide. The cells are then placed in a 37° C. water bath for 10 min, vortexed and centrifuged at 1000 g for 2 min. The supernatant was removed and the amount of hemoglobin that was released was determined by the samples' absorbance at 412 nm. Control values without added peptide were subtracted from the absorbance readings.
The numerical difference between the value of the mean of hemolysis and the mean of the activity is a useful way to determine those peptides having the most desired activity.

Chains of the proteins cited; added tags and fusions are not shown. Lines headed by an entry give the natural chain unless they say otherwise; changes in a name come on top.
UniProt P37362: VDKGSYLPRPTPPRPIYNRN
UniProt P11006: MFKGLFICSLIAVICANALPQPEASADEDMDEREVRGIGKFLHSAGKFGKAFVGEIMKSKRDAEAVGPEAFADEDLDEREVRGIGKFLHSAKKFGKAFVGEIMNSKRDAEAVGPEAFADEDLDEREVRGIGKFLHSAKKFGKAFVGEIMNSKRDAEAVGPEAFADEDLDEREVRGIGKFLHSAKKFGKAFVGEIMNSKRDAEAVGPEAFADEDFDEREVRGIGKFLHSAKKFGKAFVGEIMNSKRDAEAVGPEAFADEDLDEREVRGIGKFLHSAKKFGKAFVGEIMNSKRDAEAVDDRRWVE

First: Histatin-5
Second: Pyrrhocoricin (H): naturally derived molecule tested for comparative purposes (VDKGSYLPRPTPPRPIYNRN; UniProt P37362 1-20, looked up)
The “Mean Difference” value of the first is higher: 28.25 for the first, 24.94 for the second.

Going from LL-37 to “FKLRAKIKVRLRAKIKL [D4E1, D4E1 (AgroMed), earlier synthetic lytic peptide tested by a number of labs]”, the “Mean Difference” value rises from −4.29 to −2.76.

First: KWCFRVCYRGICYRRCR [TP, defensin-like peptide found in the hemolymph of the horseshoe crab]
Second: CC[C@H](C)[C@H](NC(=O)CN)C(=O)NCC(=O)N[C@@H](C)C(=O)N[C@H](C(=O)N[C@@H](CC(C)C)C(=O)N[C@@H](CCCCN)C(=O)N[C@H](C(=O)N[C@@H](CC(C)C)C(=O)N[C@H](C(=O)N[C@H](C(=O)NCC(=O)N[C@@H](CC(C)C)C(=O)N1CCC[C@H]1C(=O)N[C@@H](C)C(=O)N[C@@H](CC(C)C)C(=O)N[C@H](C(=O)N[C@@H](CO)C(=O)N[C@@H](Cc1c[nH]c2ccccc12)C(=O)N[C@H](C(=O)N[C@@H](CCCCN)C(=O)N[C@@H](CCCNC(=N)N)C(=O)N[C@@H](CCCCN)C(=O)N[C@@H](CCCNC(=N)N)C(=O)N[C@@H](CCC(N)=O)C(=O)N[C@@H](CCC(N)=O)C(N)=O)[C@@H](C)CC)[C@@H](C)CC)[C@@H](C)O)[C@@H](C)O)C(C)C)C(C)C [Melittin]
The “Mean Difference” value of the first is higher: −2.88 for the first, −96.59 for the second.

Compared with Indolicidin, `CC[C@H](C)[C@H](NC(=O)[C@H](CCCNC(=N)N)NC(=O)[C@@H]1CCCN1C(=O)[C@H](Cc1cnc[nH]1)NC(=O)[C@@H]1CCCN1C(=O)[C@@H]1CCCN1C(=O)[C@H](CCCNC(=N)N)NC(=O)[C@@H]1CCCN1C(=O)[C@H](CCC(N)=O)NC(=O)[C@@H]1CCCN1C(=O)[C@@H](NC(=O)[C@H](Cc1ccc(O)cc1)NC(=O)[C@@H](NC(=O)[C@@H]1CCCN1C(=O)[C@H](CCCNC(=N)N)NC(=O)[C@H](CC(N)=O)NC(=O)[C@H](CC(N)=O)NC(=O)CN)C(C)C)[C@@H](C)CC)C(=O)O` [Apidaecin IA] (H-GNNRPVYIPQPRPPHPRI-OH) is higher in “Mean Difference” value: 3.41 for the first, 19.06 for the second.

Compared with Magainin II, “Magainin I: Magainins: 23 amino acids in length, derived from the African Clawed Frog (GIGKFLHSAGKFGKAFVGEIMKS; Magainin-1; UniProt P11006 37-59, looked up)” is lower in “Mean Difference” value: 28.47 for the first, 28.41 for the second.

First: Pyrrhocoricin (D): naturally derived molecule tested for comparative purposes (VDKGSYLPRPTPPRPIYNRN; UniProt P37362 1-20, looked up)
Second: CC[C@H](C)[C@H](NC(=O)[C@@H]1CCCN1C(=O)[C@H](CCCNC(=N)N)NC(=O)[C@@H]1CCCN1C(=O)[C@H](Cc1cnc[nH]1)NC(=O)[C@H](CO)NC(=O)[C@@H](NC(=O)[C@@H]1CCCN1C(=O)[C@H](CCCNC(=N)N)NC(=O)[C@@H]1CCCN1C(=O)[C@H](CO)NC(=O)[C@H](Cc1ccc(O)cc1)NC(=O)[C@@H]1CCCN1C(=O)[C@H](CCCNC(=N)N)NC(=O)[C@@H]1CCCN1C(=O)[C@H](CCCCN)NC(=O)CN)[C@@H](C)O)C(=O)N[C@@H](CCCNC(=N)N)C(=O)N[C@H](C(=O)O)C(C)C [Drosocin] (H-GKPRPYSPRPTSHPRPIRV-OH)
The “Mean Difference” value of the first is higher: 21.63 for the first, 19.31 for the second.

Cecropin A was tested, and the “Mean Difference” value was 2.29.
